## Library screening results

The chains behind the UniProt entries cited, without tags or fusion partners.
UniProt E9BF75, entry or part of it: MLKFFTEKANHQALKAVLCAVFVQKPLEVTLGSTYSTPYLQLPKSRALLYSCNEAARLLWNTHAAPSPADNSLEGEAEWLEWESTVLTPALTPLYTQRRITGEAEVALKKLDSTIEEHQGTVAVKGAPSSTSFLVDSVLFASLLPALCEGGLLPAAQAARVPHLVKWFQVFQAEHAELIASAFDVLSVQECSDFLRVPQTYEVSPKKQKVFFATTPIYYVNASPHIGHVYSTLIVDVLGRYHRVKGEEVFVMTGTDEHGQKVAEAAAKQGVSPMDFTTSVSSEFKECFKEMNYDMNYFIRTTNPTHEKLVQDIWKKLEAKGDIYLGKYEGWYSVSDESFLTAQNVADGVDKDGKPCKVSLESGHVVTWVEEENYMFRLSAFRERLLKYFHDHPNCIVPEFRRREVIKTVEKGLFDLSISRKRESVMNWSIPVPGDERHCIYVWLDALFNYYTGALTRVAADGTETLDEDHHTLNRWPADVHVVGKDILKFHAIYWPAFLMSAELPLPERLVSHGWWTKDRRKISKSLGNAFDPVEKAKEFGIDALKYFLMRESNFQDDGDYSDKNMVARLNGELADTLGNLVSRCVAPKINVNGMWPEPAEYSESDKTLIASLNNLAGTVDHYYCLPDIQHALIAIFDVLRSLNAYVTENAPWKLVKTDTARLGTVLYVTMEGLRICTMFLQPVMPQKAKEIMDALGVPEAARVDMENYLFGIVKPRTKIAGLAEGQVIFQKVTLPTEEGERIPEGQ

Results are percentages, as filed. The controls that fix the scale are not given in the record; negative values are as filed. Compounds were drawn at random from those tested, without regard to their results. A dash means the value is not listed here; it may have been measured.

A: 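Assay on Mycobacterium tuberculosis, filed only as a heat shock assay from Cornell; the read-out is not stated. The concentration is filed as 10 mM, unlikely as a test dose, so the dose is not known. Direction is inferred from retests: higher values go with stronger inhibition. Of about 69,000 compounds tested this way, about 930 (1.4%) reached 50% or more in at least one test.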
B: 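Primary screen of methionyl-tRNA synthetase; the read-out is not stated. Target: Methionyl-tRNA synthetase (putative), Leishmania donovani (UniProt E9BF75). The test concentration is not given. The values are filed as inhibition. About 68,000 compounds were tested under these conditions; 0.035% (about 24) showed 50% or more at least once.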
C: 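Whole-cell assay for inhibitors of Mycobacterium tuberculosis growth, labelled Cornell in the record; the read-out is not stated. The concentration is filed as 10 mM, unlikely as a test dose, so the dose is not known. Higher means stronger inhibition (inferred from two other growth screens of the library). About 53,000 compounds were tested under these conditions; 1.7% (about 900) showed 50% or more at least once.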

Compound,A,B,C
Cc1ccc(N2CCCC(NCc3cc(C)on3)C2)nn1 (configuration not stated),6.454,27.32,-
Cc1ccc(CN2CCC3(CC(C(=O)NCC4CC4)=NO3)C2)cc1C (configuration not stated),1.768,4.603,-12.22
CCN(CC)S(=O)(=O)NCCc1cc(C)ccc1OC,16.49,10.99,22.71
Cc1nc2cc(C(=O)N3CCCC(n4ccnc4)C3)ccc2n1C (configuration not stated),21.31,15.36,9.582
NC(=O)C1CCN(C(=O)Cc2ccc(Cl)c(Cl)c2)CC1,22.64,11.7,7.227
CCn1nc(C)c(CN(CCCOC)Cc2ccccn2)c1C,-,6.667,-
Cn1ccnc1Sc1ccc(N)cn1,-,16.25,-
CC(C)(NC(=O)CCc1ccco1)c1ccc2c(c1)OCCO2,-0.679,12.26,20.22
CCN(Cc1ccc2c(c1)OCCO2)S(=O)(=O)N(C)C(C)C,-11.05,6.883,54.92
COC(=O)c1cccc(CNC(=O)NCCC(F)(F)F)c1,-27.77,-6.522,-2.189
O=C(NC1CCCC1)c1ccc(COCC(F)(F)F)o1,24.64,3.876,-8.733
Cc1nn(C)c(N(C)C)c1CNCC(O)COc1ccccc1 (configuration not stated),-,9.36,-
COCCNC(=O)N1CCCC1COc1ccccc1 (configuration not stated),25.92,7.434,-1.834
[H][C@@]12CCN(Cc3c(C)noc3C)C[C@]1([H])[C@H](C(=O)N1CCCO1)CCO2,-65.19,-,-35.51
Cc1noc2nc3c(c(C(=O)/N=c4\[nH]nc(C(C)C)s4)c12)CCC3,-0.9816,14.4,27.35
O=C(O)CC(CC(=O)N(Cc1ccsc1)C1CC1)c1cccs1 (configuration not stated),-42.88,5.367,15.88
c1cnc(N2CCO[C@@H]3CN(Cc4ccoc4)C[C@@H]3C2)nc1,-,6.044,-
Cc1nnc(N2C[C@H](C(=O)NCC3CC3)[C@@H]3CCO[C@@H]3C2)s1,-,11.76,-
O=C(NC1CCC1)[C@H]1C[C@@H]2CN(S(=O)(=O)c3ccccc3)C[C@H]1O2,-,12.32,-
COC(=O)c1ccc(C(=O)NCC(O)c2cccn2C)cc1 (configuration not stated),1.494,6.479,64.24
CCOCC1CN(S(=O)(=O)c2ccccc2)Cc2nccn2C1 (configuration not stated),38.06,9.384,-12.6
CCC(C)CNc1ccc2oc(COC)nc2c1 (configuration not stated),16.34,-0.9524,35.01
CCc1ncnc2c1CCN(Cc1ccccn1)CC2,-,-1.245,-
CCN1CC2(CCC1=O)CCN(Cc1nncn1C)CC2,12.6,21.48,18.77
CN(C)CCn1c([C@H]2CCCO2)cc2cccnc21,-13.22,12.5,-5.872
O=S(=O)(C1CC1)N1CC[C@@H]2[C@@H]1CCN2Cc1cccs1,-,3.759,-
Cc1cn2nc(N(C)C3CCCN(c4cccnn4)C3)sc2n1 (configuration not stated),-1.178,21.01,-
CC(C)CC(=O)NCC(O)c1c(F)cccc1F (configuration not stated),-7.366,-16.02,-
N#CCCN(Cc1ccco1)C(=O)CN1CCCC1c1cccs1 (configuration not stated),14,14.52,-8.621
CC(Cn1cccn1)NCc1csc(-c2ncccn2)n1 (configuration not stated),-0.311,10.12,-
CN(C(=O)CCc1ccsc1)S(C)(=O)=O,-14.42,7.692,-7.184
COC(=O)CN(C(=O)c1cc(C)c(F)cc1F)c1cccc(C)n1,-46.05,6.63,-
CN1CCC(Cc2noc(-c3cccc(Oc4ncccn4)c3)n2)CC1,-5.326,13.77,29.09
CC(=O)N(Cc1ncc(C)o1)C1CCN(CCc2ccncc2)C1 (configuration not stated),-14.84,10.06,8.146
Cc1nonc1CN(C)Cc1nc(-c2ccccc2Cl)oc1C,-5.352,2.903,9.345
Cc1cnn(C2CCN(Cc3ccccc3)C2)c1N (configuration not stated),-27.61,14.24,0.6017
O=C1CC2(CCN(c3nncs3)C2)CN1c1ccccc1 (configuration not stated),5.001,15.24,23.78
[H][C@]12CCCCN1CCC[C@H]2CN(C)Cc1nc2ccsc2c(=O)[nH]1,7.674,-,-20.37
Cc1ccc(-c2n[nH]cc2CN(Cc2nccn2C)C(C)C)cc1C,2.309,7.018,27.96
Cc1ccccc1N1CCCN(c2ccncn2)CC1,9.08,10.86,29.38
O=C(Cc1cccs1)N1Cc2nc(CN3CCCC3)oc2C1,-13.04,-1.039,-13.06
COCc1cnc2n1CCN(C(=O)c1oc3ccccc3c1C)C2C (configuration not stated),-6.056,1.12,-32.27
O=C(O)C(F)(F)F.[H][C@]12CN(CC)C[C@@]1(C(=O)O)CCCN(C(=O)NCc1ccccc1)C2,11.26,-,-46.34
CS(=O)(=O)NC1CCCN(C(=O)Nc2ccccc2Cn2cccn2)C1 (configuration not stated),-15.05,4.393,-10.01

6 of the entries, repeated:

| Compound | A | B | C |
|---|---|---|---|
| `CCN1CC2(CCC1=O)CCN(Cc1nncn1C)CC2` | 12.6 | 21.48 | 18.77 |
| `Cc1nc2cc(C(=O)N3CCCC(n4ccnc4)C3)ccc2n1C` (configuration not stated) | 21.31 | 15.36 | 9.582 |
| `Cc1ccc(N2CCCC(NCc3cc(C)on3)C2)nn1` (configuration not stated) | 6.454 | 27.32 | - |
| `Cc1cnn(C2CCN(Cc3ccccc3)C2)c1N` (configuration not stated) | -27.61 | 14.24 | 0.6017 |
| `[H][C@]12CCCCN1CCC[C@H]2CN(C)Cc1nc2ccsc2c(=O)[nH]1` | 7.674 | - | -20.37 |
| `[H][C@@]12CCN(Cc3c(C)noc3C)C[C@]1([H])[C@H](C(=O)N1CCCO1)CCO2` | -65.19 | - | -35.51 |

Source: ChEMBL document CHEMBL3988442, “University of Dundee, Small-Polar-MMV Screening Library” (2021).